The assay concerns BDF1 mice, B16 melanoma ip, median survival T/C. The experiment in a line: NCI In Vivo Anticancer Drug Screen. Data for tumor model B16 Melanoma (intraperitoneal) in B6D2F1 (BDF1) mice. Particulars: T/C endpoint: median survival time, higher T/C = longer survival. Put shortly: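 Compounds were tested in mice carrying transplantable tumors. Survival or tumor size was recorded, and each value is the treated-group measurement (T) divided by that of the vehicle-treated control group (C).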

Setting [1] is: dose: 100.0 mg/kg/injection, schedule: Q01DX009 (ip), vehicle: Klucel (hydroxypropylcellulose) (HPC).
The mark [2] stands for this setting: dose: 200.0 mg/kg/injection, schedule: Q01DX009 (ip), vehicle: Klucel (hydroxypropylcellulose) (HPC).
The mark [3] stands for this setting: dose: 400.0 mg/kg/injection, schedule: Q01DX009 (ip), vehicle: Klucel (hydroxypropylcellulose) (HPC).
Where [4] appears, read: dose: 200.0 mg/kg/injection, schedule: Q01DX009 (ip), vehicle: saline with Tween-80.
The mark [5] stands for this setting: dose: 400.0 mg/kg/injection, schedule: Q01DX009 (ip), vehicle: saline with Tween-80.

Each structure is given as a SMILES string. The list does not hold the whole screen: it is rich in T/C values a quarter to a half above the control, in often repeated tests (any T/C) and in doses without a T/C. Other doses and runs of a compound stand elsewhere. T/C: endpoint of the treated group in % of that of the vehicle group. Some doses have a count of surviving animals in place of a T/C: the source holds a T/C of zero for them, seemingly a mark for toxic or unscored doses. Some survivor counts are full or nearly so, which does not show that the dose was tolerated: the source hardly ever lists a survival T/C far under the control, and the zero likely stands for such cases as well. Counts of survivors are from the toxicity check (mostly the fifth day) where no day follows; animals may have died later. Schedules are NCI's codes, taken here to give the interval after Q, in days (D) or hours (H), and the number of doses after X. Some entries hold several experiments; the values are given in rising order. Where survival is the endpoint, the PubChem record calls one and a half times the control and up active, and a quarter to a half above the control has no call in these data; cut-offs in other NCI protocols can differ. Peptide text beside a SMILES is read from it. * marks the point of attachment. Cbz = O=C(OCc1ccccc1)*

In the case of `NC(N)=NCCCOc1ccccc1`, the survivor count reads like this: under setting [1], 7 of 10; under setting [2], 0 of 10; under setting [3], 0 of 10.

With `CSCS(=O)C[C@H](CO)NC(=O)/C=C/c1c(C)[nH]c(=O)[nH]c1=O` (some centres undefined), the survivor count is, setting by setting: (dose: 0.13 mg/kg/injection, schedule: Q01DX009 (ip), vehicle: Klucel (hydroxypropylcellulose) (HPC)) 10 of 10; (dose: 0.25 mg/kg/injection, schedule: Q01DX009 (ip), vehicle: carboxymethylcellulose (CMC)) 10 of 10; (dose: 0.5 mg/kg/injection, schedule: Q01DX009 (ip), vehicle: carboxymethylcellulose (CMC)) 8 of 10; (dose: 1.0 mg/kg/injection, schedule: Q01DX009 (ip), vehicle: carboxymethylcellulose (CMC)) 9 of 10; (dose: 1.2 mg/kg/injection, schedule: Q01DX009 (ip), vehicle: water) 2 of 10; (dose: 2.0 mg/kg/injection, schedule: Q01DX009 (ip), vehicle: carboxymethylcellulose (CMC)) 8 of 10. The survivor count is reported as 6 of 8 (dose: 2.86 mg/kg/injection, schedule: Q04DX003 (ip), vehicle: saline) and 7 of 8 (dose: 4.08 mg/kg/injection, schedule: Q04DX003 (ip), vehicle: saline).

As to `O=C(/C=C/C(=O)Oc1ccc(Cl)cc1)Oc1ccc(Cl)cc1`, the survivor count under setting [3] is 10 of 10.

Regarding `Cc1cccc(NC(=O)COc2ccc(Cl)cc2)c1C`, the survivor count is, setting by setting: under setting [4], 10 of 10; under setting [5], 9 of 10.

Take `CCO/C=C1\SC(=S)N(Cc2ccccc2)C1=O`: the survivor count runs as follows: (dose: 12.5 mg/kg/injection, schedule: Q01DX009 (ip), vehicle: Klucel (hydroxypropylcellulose) (HPC)) 10 of 10; (dose: 50.0 mg/kg/injection, schedule: Q01DX009 (ip), vehicle: Klucel (hydroxypropylcellulose) (HPC)) 1 of 10 and 9 of 10; under setting [1], 4 of 10 and 8 of 10; under setting [2], 0 of 10; under setting [3], 0 of 10.

`C#C[C@]1(O)CC[C@H]2[C@@H]3CCc4cc(O)ccc4[C@H]3CC[C@@]21C`: the survivor count is given as 10 of 10 (dose: 80.0 mg/kg/injection, schedule: Q02DX009 (ip), vehicle: Klucel (hydroxypropylcellulose) (HPC)); 10 of 10 (dose: 160.0 mg/kg/injection, schedule: Q02DX009 (ip), vehicle: Klucel (hydroxypropylcellulose) (HPC)); 9 of 10 (dose: 320.0 mg/kg/injection, schedule: Q02DX009 (ip), vehicle: Klucel (hydroxypropylcellulose) (HPC)); 5 of 10 (dose: 640.0 mg/kg/injection, schedule: Q02DX009 (ip), vehicle: Klucel (hydroxypropylcellulose) (HPC)).

`O=C1C(N2CCCCC2)=C(N2CC2)C(=O)C(N2CCCCC2)=C1N1CC1`: the survivor count reads like this: (dose: 5.0 mg/kg/injection, schedule: Q01DX009 (ip), vehicle: saline) 9 of 10; (dose: 10.0 mg/kg/injection, schedule: Q01DX009 (ip), vehicle: saline) 10 of 10; (dose: 20.0 mg/kg/injection, schedule: Q01DX009 (ip), vehicle: saline) 6 of 10 and 9 of 10.

On to `COc1c2c([n+](C)c3c(OC)cccc13)OC(C(C)C)C2` (centres undefined), for which the survivor count reads like this: (dose: 2.0 mg/kg/injection, schedule: Q01DX009 (ip), vehicle: saline sonified) 6 of 6; (dose: 3.0 mg/kg/injection, schedule: Q01DX009 (ip), vehicle: saline) 2 of 10; (dose: 6.0 mg/kg/injection, schedule: Q04DX003 (ip), vehicle: saline) 0 of 10.

Take `CSCCC(NC(=O)C(Cc1ccccc1)NC(=O)OCc1ccccc1)C(=O)O` (stereo not drawn) (Cbz-Phe-Met-OH; configuration not given here): the survivor count by setting is: under setting [4], 9 of 10; under setting [5], 9 of 10.

Take `CCN(CC)CCOc1cc(C)ccc1C(C)C`: the survivor count is, setting by setting: under setting [1], 6 of 10; under setting [2], 4 of 10.

Consider `CCCN(C)/N=N/c1nc[nH]c1C(N)=O`, for which the T/C (dose: 25.0 mg/kg/injection, schedule: Q01DX009 (ip), vehicle: saline with Tween-80) is 129 % of control. For the same compound, the survivor count is 10 of 10 (dose: 100.0 mg/kg/injection, schedule: Q01DX009 (ip), vehicle: saline with Tween-80) and 8 of 10 under setting [4].

Regarding `Nc1cc(S(N)(=O)=O)ccc1SSc1ccc(S(N)(=O)=O)cc1N`, the survivor count under setting [5] was 5 of 6.

`CCC(C)C1NC(=O)C(NC(=O)c2c3nc4c(C(=O)NC5C(=O)NC(C(C)CC)C(=O)N6CCCC6C(=O)N(C)CC(=O)N(C)C(C(C)C)C(=O)OC5C)cc([N+](=O)[O-])c(C)c4oc-3c(C)c(=O)c2N)C(C)OC(=O)C(C(C)C)N(C)C(=O)CN(C)C(=O)C2CCCN2C1=O` (centres undefined): the T/C (dose: 200.0 micrograms/kg/injection, schedule: Q01DX009 (ip), vehicle: water) was 134 % of control. Under “dose: 800.0 micrograms/kg/injection, schedule: Q01DX009 (ip), vehicle: water”, the survivor count is recorded as 10 of 10.

(Values after PubChem BioAssay AID192 (DTP/NCI, 2004).)
